Data on one sequence can be found in PMC5192219.

The chains behind the UniProt entries cited, without tags or fusion partners.
UniProt Q9UER7, whole entry: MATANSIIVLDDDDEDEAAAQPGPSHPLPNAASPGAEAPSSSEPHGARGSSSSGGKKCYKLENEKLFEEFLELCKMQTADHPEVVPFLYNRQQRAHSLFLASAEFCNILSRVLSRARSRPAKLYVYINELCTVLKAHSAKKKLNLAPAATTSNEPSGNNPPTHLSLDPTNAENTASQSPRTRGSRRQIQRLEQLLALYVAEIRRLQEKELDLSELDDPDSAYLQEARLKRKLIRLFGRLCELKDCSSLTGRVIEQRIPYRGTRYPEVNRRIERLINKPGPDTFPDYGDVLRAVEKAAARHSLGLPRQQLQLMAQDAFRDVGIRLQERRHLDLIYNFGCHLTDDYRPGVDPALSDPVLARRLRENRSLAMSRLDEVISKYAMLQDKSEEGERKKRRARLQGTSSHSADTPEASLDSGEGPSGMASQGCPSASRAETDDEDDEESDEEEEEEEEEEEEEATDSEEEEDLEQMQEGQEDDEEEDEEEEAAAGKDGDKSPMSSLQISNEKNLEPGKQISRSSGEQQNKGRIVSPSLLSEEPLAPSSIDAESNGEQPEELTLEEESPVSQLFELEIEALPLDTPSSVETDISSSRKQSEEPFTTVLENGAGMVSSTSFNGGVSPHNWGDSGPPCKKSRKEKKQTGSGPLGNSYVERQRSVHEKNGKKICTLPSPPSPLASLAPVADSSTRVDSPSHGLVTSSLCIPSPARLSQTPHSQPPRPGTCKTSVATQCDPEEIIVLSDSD

Construct, isoform or probe ends are uncertain for at least one entry. For part of these data: A negative result means that nothing was seen under these conditions. For part of these data: Weaker means in comparison with the reference protein, sequence or condition of that experiment. For part of these data: Protein sequences can lack the tags named with them.

One series deals with T1, Slug (UniProt O43623).
T1 sequence (looked up): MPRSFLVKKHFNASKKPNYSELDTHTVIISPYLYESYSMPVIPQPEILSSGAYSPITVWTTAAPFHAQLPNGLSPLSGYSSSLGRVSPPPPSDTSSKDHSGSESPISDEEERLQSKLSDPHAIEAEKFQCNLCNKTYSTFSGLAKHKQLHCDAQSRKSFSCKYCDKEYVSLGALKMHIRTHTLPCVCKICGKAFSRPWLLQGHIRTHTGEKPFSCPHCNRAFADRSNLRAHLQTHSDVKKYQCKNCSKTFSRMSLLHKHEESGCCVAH
The series can be described thus: EMSA. Conditions: 0.05 nM 32P probe, 1 ug Slug, room temperature 30 min, 5x buffer: 2.5 mM EDTA, 50 mM Tris-HCl pH 7.5, 2.5 mM DTT, 5 mM MgCl2, 250 mM NaCl, 20% glycerol, recombinant protein, residues 1-268, label: 32P 5' end (T4 PNK).

The next series deals with Daxx (UniProt Q9UER7). Briefly: EMSA. Conditions: Daxx alone; 0.05 nM 32P probe, 1 ug Slug, room temperature 30 min; 5x buffer: 2.5 mM EDTA, 50 mM Tris-HCl pH 7.5, 2.5 mM DTT, 5 mM MgCl2, 250 mM NaCl, 20% glycerol; protein translated in vitro; residues 1-740; protein details: HA (N-terminal); label: 32P 5' end (T4 PNK). (In EMSA bound probe runs differently from free probe, usually more slowly.)

In the case of “GACTTCCGCAAGCTCACAGGTGCTTTGCAGTTCCGACG (double strand) [E-boxC wild-type]”, the binding result is “binds” in the series with Slug, “binds more weakly” with Slug (+ HA-Daxx (disrupts the Slug-DNA complex)) and “no binding” in the series with Daxx.
